Measurements reported in PubChem BioAssay AID328 (DTP/NCI, 2004).
The list shows only some results of the screen, not a fair sample: it is rich in T/C values a quarter to a half above the control, in often repeated tests (any T/C) and in doses without a T/C. Further doses and runs are listed elsewhere. T/C: endpoint of the treated group in % of that of the vehicle group. Some doses have a count of surviving animals in place of a T/C: the source files T/C as zero there, which appears to mark a toxic dose or a test without result, not a measured value. Some survivor counts are full or nearly so, which does not show that the dose was tolerated: the source hardly ever lists a survival T/C far under the control, and the zero likely stands for such cases as well. Survivors were counted at the toxicity check, usually on the fifth day, unless a day is given; later deaths do not show. Schedules are NCI's codes, taken here to give the interval after Q, in days (D) or hours (H), and the number of doses after X. Where survival is the endpoint, this PubChem deposit counts one and a half times the control or more as active, and values a quarter to a half above the control carry no call in these data; other NCI protocols may use other cut-offs. Some T/C values are followed by the survivors on the day toxicity was checked, most often the fifth; without a count, all were alive then. Some entries were tested several times; the results are listed from low to high. Additions like (4×) say how often a value occurs here.

Test system: BDF1 mice, P388 leukemia ip, median survival T/C
Assay: NCI In Vivo Anticancer Drug Screen. Data for tumor model P388 Leukemia (intraperitoneal) in B6D2F1 (BDF1) mice
Conditions: T/C endpoint: median survival time, higher T/C = longer survival
Description: The antitumor activity of compounds was measured in mice bearing transplantable tumors. Survival or tumor size were measured and the results are expressed as the measurement made in the treated group (T) divided by the measurement made in the vehicle treated control group (C). The tumor model used in this assay is P388 Leukemia (intraperitoneal) in B6D2F1 (BDF1) mice

CC(CN1CC(=O)NC(=O)C1)N1CC(=O)NC(=O)C1 (centres undefined)
T/C (dose: 7.5 mg/kg/injection, schedule: Q01DX010 (oral), vehicle: saline with Tween-80): 127 % of control | T/C (dose: 12.5 mg/kg/injection, schedule: Q01DX005 (ip), vehicle: Klucel (hydroxypropylcellulose) (HPC), evaluated on day 30): 108, 110, 114, 119, 120, 121, 124, 126, 128, 134, 138, 139 (2×), 142 (2×), 148, 149 (2×), 151 (2×), 152, 155 (3×), 156, 157, 158, 160, 166, 169, 272 % of control | T/C (dose: 12.5 mg/kg/injection, schedule: Q01DX005 (ip), vehicle: Klucel (hydroxypropylcellulose) (HPC), evaluated on day 35): 113 [2 of 3 alive] and 155 % of control | T/C (dose: 12.5 mg/kg/injection, schedule: Q01DX009 (ip), vehicle: Klucel (hydroxypropylcellulose) (HPC), evaluated on day 30): 102, 111, 118, 119 [5 of 6 alive], 128 [2 of 3 alive], 130, 131, 132, 134, 138, 140, 141, 144 (2×), 145, 147, 149, 151 (2×), 152 (2×), 154, 156, 157, 159, 160, 163, 165 (2×), 178, 185, 189, 194, 221, 263 % of control | T/C (dose: 12.5 mg/kg/injection, schedule: Q01DX009 (ip), vehicle: Klucel (hydroxypropylcellulose) (HPC), evaluated on day 35): 149 % of control | T/C (dose: 25.0 mg/kg/injection, schedule: Q01DX005 (ip), vehicle: Klucel (hydroxypropylcellulose) (HPC), evaluated on day 30): 116, 117, 125, 127, 128 (2×), 129, 131, 133, 137 (2×), 138, 139 (3×), 145, 150, 155, 156 (2×), 158 [5 of 6 alive], 159, 160 (4×), 166, 168, 171 (2×), 174 % of control | T/C (dose: 25.0 mg/kg/injection, schedule: Q01DX005 (ip), vehicle: Klucel (hydroxypropylcellulose) (HPC), evaluated on day 35): 147 and 158 % of control | T/C (dose: 25.0 mg/kg/injection, schedule: Q01DX009 (ip), vehicle: Klucel (hydroxypropylcellulose) (HPC), evaluated on day 30): 94, 105 [5 of 6 alive], 118, 122, 135, 143, 144, 147, 149, 161, 167, 169 (3×), 171 (3×), 172, 176 (2×), 177, 179, 182, 183 [2 of 3 alive], 185, 188 (2×), 191, 196 (3×), 203, 226, 241 % of control | T/C (dose: 25.0 mg/kg/injection, schedule: Q01DX009 (ip), vehicle: Klucel (hydroxypropylcellulose) (HPC), evaluated on day 35): 181 % of control | survivor count (dose: 25.0 mg/kg/injection, schedule: Q01DX009 (ip), vehicle: Klucel (hydroxypropylcellulose) (HPC)): 3 of 3 | T/C (dose: 25.0 mg/kg/injection, schedule: Q01DX009 (ip), vehicle: steroid suspending solution): 135 % of control | T/C (dose: 30.0 mg/kg/injection, schedule: Q01DX010 (ip), vehicle: saline): 133 % of control | survivor count (dose: 30.0 mg/kg/injection, schedule: Q01DX010 (oral), vehicle: saline with Tween-80): 6 of 6 | T/C (dose: 37.5 mg/kg/injection, schedule: Q04DX002 (ip), vehicle: Klucel (hydroxypropylcellulose) (HPC), evaluated on day 30): 90, 98, 102, 103 (2×), 104 (2×), 105, 107, 109, 110 (2×), 112, 114, 115 (2×), 116, 117, 119 (4×), 120 (2×), 121, 131, 144, 189 % of control | T/C (dose: 37.5 mg/kg/injection, schedule: Q04DX002 (ip), vehicle: Klucel (hydroxypropylcellulose) (HPC), evaluated on day 35): 102 % of control [5 of 6 alive] | survivor count (dose: 37.5 mg/kg/injection, schedule: Q04DX002 (ip), vehicle: Klucel (hydroxypropylcellulose) (HPC)): 3 of 3 | T/C (dose: 37.5 mg/kg/injection, schedule: Q04DX003 (ip), vehicle: Klucel (hydroxypropylcellulose) (HPC), evaluated on day 30): 86, 100, 104 (2×), 108 (2×), 109, 112 (2×), 113 (2×), 116, 117, 118, 119, 120 (5×), 123 (3×), 126 (2×), 129, 130, 131, 135, 137, 255 % of control | T/C (dose: 37.5 mg/kg/injection, schedule: Q04DX003 (ip), vehicle: Klucel (hydroxypropylcellulose) (HPC), evaluated on day 35): 119 % of control | T/C (dose: 50.0 mg/kg/injection, schedule: Q01DX001 (ip), vehicle: Klucel (hydroxypropylcellulose) (HPC)): 92, 100, 104, 107, 108 (4×), 109 (4×), 112, 113 (2×), 114 (2×), 115, 117, 118, 119, 120, 121 (2×), 125, 126, 129, 147 (2×), 158 % of control | T/C (dose: 50.0 mg/kg/injection, schedule: Q01DX005 (ip), vehicle: Klucel (hydroxypropylcellulose) (HPC), evaluated on day 30): 116, 126, 133 (2×), 136, 137, 139, 140, 141 (3×), 142, 142 [5 of 6 alive], 148 (3×), 149, 157, 158, 161, 162 (3×), 168, 169 (2×), 174, 178, 189, 191, 197 % of control | T/C (dose: 50.0 mg/kg/injection, schedule: Q01DX005 (ip), vehicle: Klucel (hydroxypropylcellulose) (HPC), evaluated on day 35): 121 and 177 % of control | T/C (dose: 50.0 mg/kg/injection, schedule: Q01DX009 (ip), vehicle: Klucel (hydroxypropylcellulose) (HPC), evaluated on day 30): 88, 90, 92, 110, 113, 113 [5 of 6 alive], 114 [5 of 6 alive], 133, 150, 153 [2 of 3 alive], 161, 165, 173, 176, 177, 178, 179 (2×), 180, 181, 182, 185 (2×), 187, 188, 189, 200, 202, 203, 206, 207, 214 (2×), 218, 231 % of control | T/C (dose: 50.0 mg/kg/injection, schedule: Q01DX009 (ip), vehicle: Klucel (hydroxypropylcellulose) (HPC), evaluated on day 35): 103 % of control [5 of 6 alive] | T/C (dose: 50.0 mg/kg/injection, schedule: Q03HX024 (ip), vehicle: steroid suspending solution): 135 % of control | T/C (dose: 50.0 mg/kg/injection, schedule: Q04DX002 (ip), vehicle: Klucel (hydroxypropylcellulose) (HPC)): 128 % of control | T/C (dose: 60.0 mg/kg/injection, schedule: Q01DX010 (ip), vehicle: saline): 128 % of control | T/C (dose: 75.0 mg/kg/injection, schedule: Q04DX002 (ip), vehicle: Klucel (hydroxypropylcellulose) (HPC), evaluated on day 30): 91, 102, 103, 104, 106, 107, 108 (2×), 115, 116, 118, 119 (4×), 120, 121, 122 (2×), 125, 126, 128 (2×), 129, 131 (2×), 135, 137 % of control | T/C (dose: 75.0 mg/kg/injection, schedule: Q04DX002 (ip), vehicle: Klucel (hydroxypropylcellulose) (HPC), evaluated on day 35): 109 % of control | survivor count (dose: 75.0 mg/kg/injection, schedule: Q04DX002 (ip), vehicle: Klucel (hydroxypropylcellulose) (HPC)): 3 of 3 | T/C (dose: 75.0 mg/kg/injection, schedule: Q04DX003 (ip), vehicle: Klucel (hydroxypropylcellulose) (HPC), evaluated on day 30): 95, 104 (2×), 115 (2×), 116 (2×), 117, 120, 121 (4×), 122, 123 (2×), 125, 126, 128, 129 (2×), 130, 131, 133, 137, 145, 147, 148 (2×), 157 % of control | T/C (dose: 75.0 mg/kg/injection, schedule: Q04DX003 (ip), vehicle: Klucel (hydroxypropylcellulose) (HPC), evaluated on day 35): 111 % of control | survivor count (dose: 75.0 mg/kg/injection, schedule: Q04DX003 (ip), vehicle: Klucel (hydroxypropylcellulose) (HPC)): 5 of 6 | T/C (dose: 86.4 mg/kg/injection, schedule: Q04DX003 (ip), vehicle: Klucel (hydroxypropylcellulose) (HPC)): 135 % of control | T/C (dose: 100.0 mg/kg/injection, schedule: Q01DX001 (ip), vehicle: Klucel (hydroxypropylcellulose) (HPC)): 95, 104, 108, 109, 110 (4×), 111 (3×), 111 [5 of 6 alive], 113, 114, 115 (5×), 117, 118, 119, 120 (2×), 123, 127, 128, 129 (2×), 140 % of control
